Data source: PubChem BioAssay AID652259 (Drosophila RNAi Screening Center, 2013)
The deposit covers about 22,000 reagents; this is a random part of those that have a named target and a result. In the full data, 233 (1.1%) got an active call. 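Light values are raw, unnormalised plate reads; the ratio scores behind the reporter calls were not deposited.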 Entries without a mark were called inactive. Reagents against one gene are numbered here. A plus sign joins genes that one reagent is predicted to hit. The record does not give: the amount of reagent, the time to read-out, the dose of the treatment.

- Test: 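Identify new Wingless signalling regulators in fly cells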 (primary screen)
- System: Drosophila clone 8 imaginal disc epithelial cells
- Reagents: long dsRNA against Drosophila genes
- Conditions: pathway stimulated by co-transfected Wingless expression plasmid
- Measured: 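Firefly luciferase from a tcf-site Wingless reporter, measured alongside co-transfected Renilla luciferase that tracks transfection; pathway stimulated by a Wingless plasmid; the firefly-to-Renilla ratio is not deposited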
- Direction: firefly reporter light: higher = more Wg reporter light, before normalisation; Renilla control light: higher = more transfected or surviving cells
- Call rule: 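a knock-down is a candidate when at least two out of four statistical tests show it departing from its plate mean; one test alone signals a weak candidate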
- Meaning of the calls: active = candidate regulator (raises or lowers reporter); inactive = not a candidate

target gene,reagent no.,"reporter change call, replicate 1","firefly reporter light, replicate 1","firefly reporter light, replicate 2","Renilla control light, replicate 1","Renilla control light, replicate 2"
Vha26 (Vacuolar H[+]-ATPase 26kD subunit),1,,8037,,2784,
CG14492,1,,6656,,1994,
mRpS33 (mitochondrial ribosomal protein S33),1,,42172,,7397,
esn (espinas),1,,19783,,7466,
esn (espinas),2,,2629,6186,625,2960
esn (espinas),3,,1804,5200,420,1989
Lam (Lamin),1,,1115,3992,194,285
CG31446,1,,2632,,1176,
CG3558,1,,14300,,4856,
CG13054,1,,5712,,3584,
Lsp1gamma (Larval serum protein 1 gamma),1,,8390,,3076,
CG2224,1,,6220,,2688,
CG32945,1,,2600,,1113,
CG8089,1,,6620,,2288,
Rab1,1,,36493,,6857,
Ugt37C1 (UDP-glycosyltransferase family 37 member C1),1,,6365,,2449,
sosie,1,,27056,,22309,
sosie,2,,7.20e5,7.05e5,4.34e5,3.54e5
CG31097,1,,21532,,15133,
CG32371,1,,6.98e5,7.98e5,3.95e5,3.83e5
CG42383,1,,3.73e5,4.14e5,2.00e5,1.39e5
"Lamtor3 (Late endosomal/lysosomal adaptor, MAPK and MTOR activator 3)",1,,3288,7856,1291,3371
ari-1 (ariadne 1),1,,25243,,14316,
ari-1 (ariadne 1),2,,6.45e5,6.81e5,3.80e5,2.66e5
grh (grainy head),1,,28576,,16629,
grh (grainy head),2,,10874,,5658,
grh (grainy head),3,,11116,,2170,
grh (grainy head),4,,6689,,2337,
Acsx1L (Acyl-CoA synthetase X1 L),1,,20710,,2560,
Gr58a (Gustatory receptor 58a),1,,15845,,7433,
AANATL7 (Arylalkylamine N-acetyltransferase-like 7),1,,17338,,13187,
Dbp73D (Dead box protein 73D),1,,4950,,1267,
BaraB (Baramicin B),1,,4822,12121,1196,4069
CG4367,1,,12858,,3520,
CG30278,1,,5.48e5,6.27e5,2.22e5,2.40e5
CG43307,1,,23216,7.08e5,11449,3.41e5
dlp (dally-like),1,Wg reporter activity raised (active),5124,,589,
dlp (dally-like),2,Wg reporter activity raised (active),11012,,882,
Glo1 (Glyoxalase 1),1,,1597,5565,576,2371
CG7168,1,,2522,6837,1504,1888

The list goes on, starting with the last 7 of the part before.
target gene,reagent no.,"reporter change call, replicate 1","firefly reporter light, replicate 1","firefly reporter light, replicate 2","Renilla control light, replicate 1","Renilla control light, replicate 2"
CG4367,1,,12858,,3520,
CG30278,1,,5.48e5,6.27e5,2.22e5,2.40e5
CG43307,1,,23216,7.08e5,11449,3.41e5
dlp (dally-like),1,Wg reporter activity raised (active),5124,,589,
dlp (dally-like),2,Wg reporter activity raised (active),11012,,882,
Glo1 (Glyoxalase 1),1,,1597,5565,576,2371
CG7168,1,,2522,6837,1504,1888
scat (scattered),1,,8112,,2480,
l(2)gd1 (lethal (2) giant discs 1),1,,7642,,2148,
NT1 (Neurotrophin 1),1,,933,5671,892,2644
NT1 (Neurotrophin 1),2,,6.77e5,6.77e5,3.02e5,2.60e5
CG34149,1,,2267,4356,1240,1495
CG17327,1,,19616,,3526,
NPF (neuropeptide F),1,,15669,,3939,
nAChRbeta1 (nicotinic Acetylcholine Receptor beta1),1,,3026,,1920,
nAChRbeta1 (nicotinic Acetylcholine Receptor beta1),2,,5981,,2947,
Lip4 (Lipase 4),1,,1932,7200,656,3760
CG11837,1,,2123,6653,1329,666
Mal-A7 (Maltase A7),1,,2280,6096,794,2218
ntc (nutcracker),1,,5504,,2438,
Roc2 (Regulator of cullins 2),1,,10720,,3541,
cl (clot),1,,10832,,5336,
Mapmodulin,1,,10983,,2010,
l(3)80Fg (lethal (3) 80Fg),1,,4.53e5,5.22e5,1.97e5,1.98e5
l(3)80Fg (lethal (3) 80Fg),2,,7.78e5,8.83e5,3.41e5,3.10e5
CG11322,1,,3446,7197,1526,3505
CG4210,1,,8149,,2908,
CG32055,1,,5773,,2021,
CG16775,1,,11061,,6048,
Smug,1,,14803,,4583,
psidin (phagocyte signaling impaired),1,,18214,,4753,
CG9962,1,,2149,7094,877,2625
dre4,1,Wg reporter activity raised,13284,,2800,
CG14331,1,,12972,,2992,
RpL29 (Ribosomal protein L29),1,,3243,4864,677,1873
phr6-4 ((6-4)-photolyase),1,,3427,8541,1016,3400
sloth2 + sloth1,1,,24480,,11904,
sloth2 + sloth1,2,,24982,,10699,
O-fut2 (O-fucosyltransferase 2),1,,2938,4746,1152,2042
loco (locomotion defects),1,,22419,,16452,
loco (locomotion defects),2,,1251,5649,794,1762
